We go through one substance from patent publication US9730984 (dated 2017).

Strings that start with PEPTIDE1 are HELM notation: dots part the residues, brackets hold end groups and non-standard residues.

A short description of this data set: general procedure: Fmoc solid-phase peptide synthesis; NH2-Lys(Boc)-2-chloro-Trityl Resin; HBTU/HOBT/NMM. The settings on record: whole synthesis, high-performance liquid chromatography.

For “PEPTIDE1{E.A.R.P.A.L.L.T.S.R.L.R.F.I.P.K}$$$$V2.0”, the “final HPLC purity” value is 95% or higher.
